Data reported in PubChem BioAssay AID2417 (National Center for Advancing Translational Sciences (NCATS), 2010).
Hit rate of the full screen: of about 140,000 compounds, about 4,300 (3.1%) were called active. The inconclusive results got no clear call from the source; some entries with a clear call stand among them for comparison.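 How the source made its calls: active means readout at or below -70, meaning at least 70% loss of cells showing the perinucleolar compartment, a nuclear body marking cancer cells; inconclusive means readout between -30 and a set limit; inactive means the rest.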

Assay: High Content Assay for Compounds that inhibit the Assembly of the Perinucleolar Compartment;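 further: plate controls were DMSO wells for no effect and camptothecin positive control wells for full effect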
Details: PC3M PTB-GFP, PNC prevalence imaging, 16 h; at 10 µM; stronger effect = lower value
Method in brief: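 Compounds are pinned in duplicate onto adhered PC3M cells stably expressing GFP-tagged PTB and incubated 16 h at 37 C. Cells are then fixed, nuclei stained with Hoechst, and PNC-positive cells counted.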
In the case of Cc1c(NC(=O)CSc2nnc(C(C)Oc3ccc(Cl)cc3)n2-c2ccccc2)c(=O)n(-c2ccccc2)n1C (centres undefined), the activity change (PNC), negative = inhibition is reported as inactive: -1.04%. For COC(=O)c1ccc(NC(=O)CSc2ccccn2)cc1, the activity change (PNC), negative = inhibition was inconclusive: -39.7%. In the case of Cn1cnnc1SCC(=O)NC(=O)NC1CCCC1, the activity change (PNC), negative = inhibition is reported as inconclusive: -36.8%. For CCCCn1c(NC(=S)Nc2ccccc2)nc2ccccc21, the activity change (PNC), negative = inhibition was inactive: 29.3%. With COc1cc(S(=O)(=O)N2CCOCC2)cc(C(=O)c2nccn2C)c1OC the activity change (PNC), negative = inhibition was active: -88%. With COc1cc(/C=C2\S/C(=N/S(=O)(=O)c3ccccc3)NC2=O)c([N+](=O)[O-])cc1OC the activity change (PNC), negative = inhibition was inactive: 5.87%. In the case of Cc1nc(SCC(=O)c2c(C)[nH]c3ccccc23)c2c(=O)n(C)c(=O)n(CC(C)C)c2n1, the activity change (PNC), negative = inhibition is reported as inconclusive: -47.3%. With Cc1ccc(S(=O)(=O)N2CCOCC2)cc1NC(=O)CN1CCN(c2ccc(O)cc2)CC1 the activity change (PNC), negative = inhibition was inactive: 41.3%. With COc1ccc(C(=O)/C=C/c2ccc(OC)c(COc3ccccc3F)c2)cc1 the activity change (PNC), negative = inhibition was inconclusive: -61.8%. For CCOC(=O)C1CCN(S(=O)(=O)c2ccc(C(=O)OC)cc2)CC1, the activity change (PNC), negative = inhibition was inconclusive: -41.2%. In the case of Cc1ccc(CSc2nnnn2C)cc1, the activity change (PNC), negative = inhibition is reported as inconclusive: -60.4%. In the case of O=C(c1ccc(S(=O)(=O)N2CCOCC2)cc1)N1CCN(c2ccccc2)CC1, the activity change (PNC), negative = inhibition is reported as inconclusive: -57.1%. In the case of Cc1ccc(CC(=O)N2CCN(c3cccc(C(F)(F)F)c3)CC2)cc1, the activity change (PNC), negative = inhibition is reported as inconclusive: -47.1%. With COc1ccc(Cn2c(-c3ccc(C)cc3)nc3c(c(=O)c4ccccc4n3C)c2=O)cc1 the activity change (PNC), negative = inhibition was inactive: 33.9%. With CCC(C)c1ccc2oc(-c3ccc(NC(=O)c4ncn[nH]4)cc3)nc2c1 (centres undefined) the activity change (PNC), negative = inhibition was inconclusive: -51.4%. In the case of O=C(NNC(=O)c1sccc1-n1cccc1)c1ccc(Cl)cc1, the activity change (PNC), negative = inhibition is reported as inconclusive: -47%. With COc1ccc(C(=O)OC2CCN(c3ncc(C(F)(F)F)cc3Cl)CC2)cc1 the activity change (PNC), negative = inhibition was inactive: -1.98%. For CC(=O)OC(C(=O)NCc1ccco1)c1cccnc1 (centres undefined), the activity change (PNC), negative = inhibition was inconclusive: -47.6%. For O=C(CSCc1ccc(Cl)cc1)NN=C1CCCC1, the activity change (PNC), negative = inhibition was inconclusive: -75.8%. For CC1CCN(C(=O)c2cc3ccccc3o2)CC1, the activity change (PNC), negative = inhibition was inactive: -24.3%. With CCCNC(=O)CCC(=O)Nc1ncc(-c2ccc(C)cc2)n1C the activity change (PNC), negative = inhibition was inactive: -11%. For O=C(Nc1ccc2c(c1)OCO2)C(c1ccccc1)N1CCN(C(=O)c2ccco2)CC1 (centres undefined), the activity change (PNC), negative = inhibition was inactive: 13.8%. With CN(CC(=O)NCc1ccccc1)S(=O)(=O)c1cnc[nH]1 the activity change (PNC), negative = inhibition was inactive: 38.4%. In the case of C/C(N)=C(/C#N)C(=O)CSc1nnnn1-c1ccc(C)cc1, the activity change (PNC), negative = inhibition is reported as inconclusive: -49.2%.
